The target in one assay is T1, SIRT4‐HA (human) (UniProt Q9Y6E7).
T1 sequence: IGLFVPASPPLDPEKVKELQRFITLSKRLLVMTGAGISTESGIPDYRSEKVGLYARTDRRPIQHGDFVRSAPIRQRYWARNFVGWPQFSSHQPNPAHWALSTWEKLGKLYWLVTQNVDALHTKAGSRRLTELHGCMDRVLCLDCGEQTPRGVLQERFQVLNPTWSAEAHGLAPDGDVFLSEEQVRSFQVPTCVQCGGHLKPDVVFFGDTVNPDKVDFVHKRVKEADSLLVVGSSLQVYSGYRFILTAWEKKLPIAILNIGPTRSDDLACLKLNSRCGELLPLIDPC
Description: co-IP; 293FT (legend: HEK293T) cells co‐transfected with SIRT4‐HA and ENO1‐FLAG; lysis in 1% NP‐40 buffer (50 mM Tris‐HCl pH 7.4, 150 mM NaCl, 5 mM EDTA); Anti‐FLAG or Anti‐HA Affinity Gel for 4–6 h at 4 °C; Western blot.

By UniProt entry, the sequences of proteins in these tests, tags left out.
UniProt P06733: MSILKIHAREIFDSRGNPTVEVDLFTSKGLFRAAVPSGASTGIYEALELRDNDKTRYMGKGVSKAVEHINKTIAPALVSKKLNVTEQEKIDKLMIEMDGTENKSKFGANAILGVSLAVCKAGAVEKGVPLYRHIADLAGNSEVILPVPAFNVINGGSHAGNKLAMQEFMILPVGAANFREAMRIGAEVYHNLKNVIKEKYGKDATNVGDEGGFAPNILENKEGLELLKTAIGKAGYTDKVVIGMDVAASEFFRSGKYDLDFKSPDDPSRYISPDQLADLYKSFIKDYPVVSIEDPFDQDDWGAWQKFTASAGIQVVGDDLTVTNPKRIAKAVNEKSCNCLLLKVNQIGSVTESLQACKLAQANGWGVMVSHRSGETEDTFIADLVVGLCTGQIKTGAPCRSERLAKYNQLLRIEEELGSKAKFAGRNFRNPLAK

Assay [1] concerns the target T2, SIRT4, endogenous in PANC‐1 (human (endogenous in PANC‐1)) (UniProt Q9Y6E7).
T2 sequence: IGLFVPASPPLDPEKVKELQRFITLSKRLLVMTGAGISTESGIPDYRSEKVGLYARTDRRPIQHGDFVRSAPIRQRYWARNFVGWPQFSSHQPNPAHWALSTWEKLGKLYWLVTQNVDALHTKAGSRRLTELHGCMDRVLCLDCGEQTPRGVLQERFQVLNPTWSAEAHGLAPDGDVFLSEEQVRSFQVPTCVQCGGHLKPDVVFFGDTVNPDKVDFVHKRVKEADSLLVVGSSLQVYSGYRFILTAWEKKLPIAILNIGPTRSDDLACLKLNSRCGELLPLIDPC
Description: co-IP; endogenous proteins in PANC‐1 extracts; 5 µg antibody against SIRT4 or ENO1, or control IgG, on Protein A/G Sepharose; overnight at 4 °C; immunoblot. In general terms: In western blotting, separated proteins are transferred to a membrane and probed.

The target in another assay is ENO1‐FLAG (UniProt P06733). Description: co-IP; 293FT (legend: HEK293T) cells co‐transfected with SIRT4‐HA and ENO1‐FLAG; lysis in 1% NP‐40 buffer (50 mM Tris‐HCl pH 7.4, 150 mM NaCl, 5 mM EDTA); Anti‐FLAG or Anti‐HA Affinity Gel for 4–6 h at 4 °C; Western blot.
Assay [2] has as its target Enolase 1 (ENO1), endogenous in PANC‐1 (human (endogenous in PANC‐1)) (UniProt P06733). Briefly: co-IP; endogenous proteins in PANC‐1 extracts; 5 µg antibody against SIRT4 or ENO1, or control IgG, on Protein A/G Sepharose; overnight at 4 °C; immunoblot.

No constants are given. Whether binding was seen depends on the method and setting. Binding seen in cells or lysates may run through a third protein. Some entries that bind do so weakly or less than the wild type. For some of these results: Sequences can lack the tags named with a protein.

Regarding “ENO1‐FLAG (from UniProt P06733 1-434) (enzyme)”, in the assay with SIRT4‐HA (human), the binding result is given as “binds”. On to “Enolase 1 (ENO1), endogenous in PANC‐1 (from UniProt P06733 1-434) (enzyme)”, for which the binding entry in assay [1] is “binds”.

B1: SIRT4‐HA (enzyme, UniProt Q9Y6E7 29-314)
chain: IGLFVPASPPLDPEKVKELQRFITLSKRLLVMTGAGISTESGIPDYRSEKVGLYARTDRRPIQHGDFVRSAPIRQRYWARNFVGWPQFSSHQPNPAHWALSTWEKLGKLYWLVTQNVDALHTKAGSRRLTELHGCMDRVLCLDCGEQTPRGVLQERFQVLNPTWSAEAHGLAPDGDVFLSEEQVRSFQVPTCVQCGGHLKPDVVFFGDTVNPDKVDFVHKRVKEADSLLVVGSSLQVYSGYRFILTAWEKKLPIAILNIGPTRSDDLACLKLNSRCGELLPLIDPC
For B1, the binding result in the assay with ENO1‐FLAG is recorded as “binds”.

B2: SIRT4, endogenous in PANC‐1 (enzyme, UniProt Q9Y6E7 29-314)
chain: IGLFVPASPPLDPEKVKELQRFITLSKRLLVMTGAGISTESGIPDYRSEKVGLYARTDRRPIQHGDFVRSAPIRQRYWARNFVGWPQFSSHQPNPAHWALSTWEKLGKLYWLVTQNVDALHTKAGSRRLTELHGCMDRVLCLDCGEQTPRGVLQERFQVLNPTWSAEAHGLAPDGDVFLSEEQVRSFQVPTCVQCGGHLKPDVVFFGDTVNPDKVDFVHKRVKEADSLLVVGSSLQVYSGYRFILTAWEKKLPIAILNIGPTRSDDLACLKLNSRCGELLPLIDPC
For B2, the binding result in assay [2] is “binds”.

(Values after paper PMC12120773, “SIRT4 Promotes Pancreatic Cancer Stemness by Enhancing Histone Lactylation and Epigenetic Reprogramming Stimulated by Calcium Signaling” (Advanced Science, 2025).)
